Experimental data reported in patent US20030175712A1 (published 2003).
No constants are given. Whether binding was seen depends on the method and setting. For part of these data: In cells and extracts the contact can be indirect. Some binding calls cover weakened binding; strength is not graded here. For part of these data: Tags and fused reporters may be left off the sequences shown.

Sequences of proteins named here, by UniProt entry; tags and fusion partners are left off. A change or cut given only in a name is not applied to a line headed by its entry.
UniProt P18852: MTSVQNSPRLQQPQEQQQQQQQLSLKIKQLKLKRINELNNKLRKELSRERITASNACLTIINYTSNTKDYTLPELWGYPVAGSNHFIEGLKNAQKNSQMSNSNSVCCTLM

Legend:
[1] = molecular target: T1, MBP-Far1 H7 (S. cerevisiae, UniProt P21268 1-755); assay: in vitro binding of MBP-Far1 fusions to Gβ purified from yeast
T1 sequence (looked up): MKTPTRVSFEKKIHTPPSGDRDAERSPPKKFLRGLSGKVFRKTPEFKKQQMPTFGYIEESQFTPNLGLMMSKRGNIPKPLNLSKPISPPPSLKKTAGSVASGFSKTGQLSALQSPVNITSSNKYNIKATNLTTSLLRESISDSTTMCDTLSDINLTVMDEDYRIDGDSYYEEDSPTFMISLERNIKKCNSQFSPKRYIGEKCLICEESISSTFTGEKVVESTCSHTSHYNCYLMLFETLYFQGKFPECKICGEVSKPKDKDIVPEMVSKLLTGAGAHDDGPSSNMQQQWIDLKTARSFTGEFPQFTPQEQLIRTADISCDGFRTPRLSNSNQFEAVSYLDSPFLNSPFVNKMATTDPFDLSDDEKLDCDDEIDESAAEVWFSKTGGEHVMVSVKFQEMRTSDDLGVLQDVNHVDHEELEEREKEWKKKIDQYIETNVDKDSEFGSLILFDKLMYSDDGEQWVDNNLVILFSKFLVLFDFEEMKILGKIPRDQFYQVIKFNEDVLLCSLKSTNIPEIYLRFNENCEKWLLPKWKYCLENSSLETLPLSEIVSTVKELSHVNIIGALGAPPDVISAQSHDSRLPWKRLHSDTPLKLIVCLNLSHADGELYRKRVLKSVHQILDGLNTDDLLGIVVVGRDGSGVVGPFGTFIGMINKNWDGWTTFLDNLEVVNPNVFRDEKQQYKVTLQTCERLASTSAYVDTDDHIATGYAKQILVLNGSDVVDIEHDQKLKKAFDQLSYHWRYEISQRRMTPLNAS

[2] = molecular target: T2, GSTCdc24p (1-472 aa) (S. cerevisiae) (UniProt P11433); assay: GSH-agarose pull-down from mixed bacterial extracts, immunoblot
T2 sequence (looked up): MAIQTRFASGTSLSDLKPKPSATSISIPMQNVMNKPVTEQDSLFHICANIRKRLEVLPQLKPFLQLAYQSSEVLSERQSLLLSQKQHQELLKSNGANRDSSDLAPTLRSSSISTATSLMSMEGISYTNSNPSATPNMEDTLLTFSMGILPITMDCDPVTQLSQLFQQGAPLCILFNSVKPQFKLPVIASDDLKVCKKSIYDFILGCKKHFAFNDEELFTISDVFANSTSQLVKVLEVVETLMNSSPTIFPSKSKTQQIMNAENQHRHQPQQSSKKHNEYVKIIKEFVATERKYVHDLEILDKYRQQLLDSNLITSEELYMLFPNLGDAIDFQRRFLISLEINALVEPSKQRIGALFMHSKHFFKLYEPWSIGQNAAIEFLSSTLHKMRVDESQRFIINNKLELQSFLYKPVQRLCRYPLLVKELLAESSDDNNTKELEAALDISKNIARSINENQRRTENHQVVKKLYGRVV

[3] = molecular target: T3, Ste4p, GAL4 two-hybrid fusion (S. cerevisiae) (UniProt P18851); assay: yeast two-hybrid
T3 sequence: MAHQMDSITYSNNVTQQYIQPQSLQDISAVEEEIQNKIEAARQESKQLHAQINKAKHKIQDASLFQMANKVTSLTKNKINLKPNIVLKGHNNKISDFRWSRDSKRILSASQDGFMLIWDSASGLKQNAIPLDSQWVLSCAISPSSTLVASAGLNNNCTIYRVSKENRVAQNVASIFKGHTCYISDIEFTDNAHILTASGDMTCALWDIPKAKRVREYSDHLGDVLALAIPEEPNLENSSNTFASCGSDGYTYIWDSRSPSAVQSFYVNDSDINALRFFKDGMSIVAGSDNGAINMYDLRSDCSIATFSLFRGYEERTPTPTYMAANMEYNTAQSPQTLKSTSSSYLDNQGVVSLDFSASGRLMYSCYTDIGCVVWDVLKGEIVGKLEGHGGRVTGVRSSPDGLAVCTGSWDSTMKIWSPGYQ

[4] = molecular target: T4, Cdc24p, two-hybrid construct (limits not stated) (S. cerevisiae) (UniProt P11433); assay: yeast two-hybrid
T4 sequence (looked up): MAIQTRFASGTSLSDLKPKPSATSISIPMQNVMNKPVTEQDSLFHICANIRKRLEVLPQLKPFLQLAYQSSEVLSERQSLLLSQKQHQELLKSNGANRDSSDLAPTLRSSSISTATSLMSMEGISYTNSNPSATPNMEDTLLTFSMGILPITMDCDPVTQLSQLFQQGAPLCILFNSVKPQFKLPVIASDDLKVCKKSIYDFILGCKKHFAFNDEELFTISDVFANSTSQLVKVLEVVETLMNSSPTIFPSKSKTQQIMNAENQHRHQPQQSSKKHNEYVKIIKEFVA

[5] = molecular target: T4, Cdc24p, two-hybrid construct (limits not stated) (S. cerevisiae); assay: yeast two-hybrid in the absence of Gβ
[6] = molecular target: T5, 3×myc tagged Cdc24 (S. cerevisiae) (UniProt P11433); assay: co-precipitation on IgG-Sepharose from yeast extracts
T5 sequence (looked up): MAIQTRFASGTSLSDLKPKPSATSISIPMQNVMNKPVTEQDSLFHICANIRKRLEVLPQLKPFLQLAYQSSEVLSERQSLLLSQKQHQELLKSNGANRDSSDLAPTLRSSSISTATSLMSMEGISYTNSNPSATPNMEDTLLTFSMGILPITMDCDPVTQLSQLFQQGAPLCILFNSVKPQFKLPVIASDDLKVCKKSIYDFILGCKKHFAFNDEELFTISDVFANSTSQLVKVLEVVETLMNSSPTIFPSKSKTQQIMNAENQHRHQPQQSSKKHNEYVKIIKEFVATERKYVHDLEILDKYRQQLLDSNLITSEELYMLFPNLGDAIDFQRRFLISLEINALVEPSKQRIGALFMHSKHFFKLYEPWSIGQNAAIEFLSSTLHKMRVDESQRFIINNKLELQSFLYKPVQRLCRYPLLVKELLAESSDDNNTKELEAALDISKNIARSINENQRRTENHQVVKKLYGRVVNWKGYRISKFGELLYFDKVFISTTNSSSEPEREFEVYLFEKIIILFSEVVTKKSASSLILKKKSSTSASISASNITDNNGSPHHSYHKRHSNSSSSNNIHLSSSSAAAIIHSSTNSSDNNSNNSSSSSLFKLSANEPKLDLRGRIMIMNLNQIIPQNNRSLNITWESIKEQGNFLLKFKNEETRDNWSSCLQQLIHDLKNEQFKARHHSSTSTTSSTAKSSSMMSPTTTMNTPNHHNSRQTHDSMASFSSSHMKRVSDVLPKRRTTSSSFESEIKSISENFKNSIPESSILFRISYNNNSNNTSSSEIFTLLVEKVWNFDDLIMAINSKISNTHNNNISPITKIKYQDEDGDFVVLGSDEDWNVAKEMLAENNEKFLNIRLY

[7] = molecular target: Gβγ purified from yeast (HA-tagged Gβ) (S. cerevisiae) (UniProt P18852); assay: in vitro binding of MBP-Far1 to Gβ purified from yeast
[8] = molecular target: T6, His6Ste4p (S. cerevisiae) (UniProt P18851); assay: GSH-agarose pull-down from mixed bacterial extracts, immunoblot
T6 sequence: T3 sequence

## Gβγ purified from yeast (HA-tagged Gβ) (from UniProt P18852 1-107)
[1]
  binding: binds

B1: His6Ste4p (other)
chain: T3 sequence
notes: Expressed in E. coli; migrates as a doublet due to proteolysis; also called Hexahistidine-tagged Ste4p; pTrcSte4; not shown: hexahistidine tag with the leader of the pTrc vector
[2]
  binding: binds

B2: Far1, two-hybrid construct (protein, S. cerevisiae, UniProt P21268 1-830, looked up, not shown: large carriers)
chain: MKTPTRVSFEKKIHTPPSGDRDAERSPPKKFLRGLSGKVFRKTPEFKKQQMPTFGYIEESQFTPNLGLMMSKRGNIPKPLNLSKPISPPPSLKKTAGSVASGFSKTGQLSALQSPVNITSSNKYNIKATNLTTSLLRESISDSTTMCDTLSDINLTVMDEDYRIDGDSYYEEDSPTFMISLERNIKKCNSQFSPKRYIGEKCLICEESISSTFTGEKVVESTCSHTSHYNCYLMLFETLYFQGKFPECKICGEVSKPKDKDIVPEMVSKLLTGAGAHDDGPSSNMQQQWIDLKTARSFTGEFPQFTPQEQLIRTADISCDGFRTPRLSNSNQFEAVSYLDSPFLNSPFVNKMATTDPFDLSDDEKLDCDDEIDESAAEVWFSKTGGEHVMVSVKFQEMRTSDDLGVLQDVNHVDHEELEEREKEWKKKIDQYIETNVDKDSEFGSLILFDKLMYSDDGEQWVDNNLVILFSKFLVLFDFEEMKILGKIPRDQFYQVIKFNEDVLLCSLKSTNIPEIYLRFNENCEKWLLPKWKYCLENSSLETLPLSEIVSTVKELSHVNIIGALGAPPDVISAQSHDSRLPWKRLHSDTPLKLIVCLNLSHADGELYRKRVLKSVHQILDGLNTDDLLGIVVVGRDGSGVVGPFGTFIGMINKNWDGWTTFLDNLEVVNPNVFRDEKQQYKVTLQTCERLASTSAYVDTDDHIATGYAKQILVLNGSDVVDIEHDQKLKKAFDQLSYHWRYEISQRRMTPLNASIKQFLEELHTKRYLDVTLRLPQATFEQVYLGDMAAGEQKTRLIMDEHPHSSLIEIEYFDLVKQQRIHQTLEVPNL
[3]
  binding: binds
[4]
  binding: binds
[5]
  binding: binds

B3: Far1 protein A fusion (other, S. cerevisiae, UniProt P21268 1-830, looked up)
chain: B2 chain
notes: Isolated from yeast extracts on IgG-Sepharose; not shown: protein A moiety
[6]
  binding: binds

B4: MBP-Far1 (protein, S. cerevisiae, UniProt P21268 1-830, looked up, not shown: large carriers)
chain: B2 chain
[7]
  binding: binds

B5: full length Cdc24p, GAL4 two-hybrid fusion (protein, not shown: small tags and cut ends)
chain: T5 sequence (looked up)
[3]
  binding: binds

B6: GSTCdc24p (1-472 aa) (other, S. cerevisiae, UniProt P11433 1-472, looked up)
chain: T2 sequence (looked up)
notes: range 1-472; Expressed in E. coli; also called GSTCdc24 fusion; GST Cdc24 fusion (residues 1-472); not shown: glutathione-S-transferase as encoded by pGEX-2T (Pharmacia)
[8]
  binding: binds
